In paper PMC7864074, “Functions of Gle1 are governed by two distinct modes of self-association” (The Journal of Biological Chemistry, 2020):
No constants are given. Whether binding was seen depends on the method and setting.

B1: Gle1^(152–360 L248D L251D L258D L262D L315D M318D L322D L325D) (domain or fragment, UniProt Q53GS7 152-360)
chain: EEQERKVQALSEMASEQLKRFDEWKELKQHKEFQDLREVMEKSSREALGHQEKLKAEHRHRAKILNLKLREAEQQRVKQAEQERLRKEEGQIRLRADYADQEEMLQDSQQDDASEQHKALLKVDLAAFQTRGNQLCSLISGIIRASSESSYPTAESQAEAERADREDRDLDMNDGQEITRACEDKRRQDEEEAQVKLQEAQMQQGPEAH
B2: Gle1^(1–360 Δ45–54 8D) (domain or fragment, UniProt Q53GS7)
chain: MPSEGRCWETLKALRSSDKGRLCYYRDWLLRREDVLEECMSLPKHVLPHMQENQPLSETSPSSTSASALDQPSFVPKSPDASSAFSPASPATPNGTKGKDESQHTESMVLQSSRGIKVEGCVRMYELVHRMKGTEGLRLWQEEQERKVQALSEMASEQLKRFDEWKELKQHKEFQDLREVMEKSSREALGHQEKLKAEHRHRAKILNLKLREAEQQRVKQAEQERLRKEEGQIRLRADYADQEEMLQDSQQDDASEQHKALLKVDLAAFQTRGNQLCSLISGIIRASSESSYPTAESQAEAERADREDRDLDMNDGQEITRACEDKRRQDEEEAQVKLQEAQMQQGPEAH

Assays:
[1] = target: Gle1^(152–360 L248D L251D L258D L262D L315D M318D L322D L325D) (human) (UniProt Q53GS7); assay: native gel or EMSA; 4–15% acrylamide gradient native PAGE, 150 V for 90 min, Coomassie staining; both purified
[2] = target: Gle1^(1–360 Δ45–54 8D) (human) (UniProt Q53GS7); assay: SEC; S200 size-exclusion chromatography; 20 mM HEPES, pH 7.5, 200 mM NaCl, 0.5 mM TCEP, 10% glycerol; MBP as a size reference; both purified

Row | Binder | binding [1] | binding [2]
1 | B1 | no binding | –
2 | B2 | – | no binding
